Data taken from the supplement of paper PMC12067093, “Discovery and optimisation of a covalent ligand for TRIM25 and its application to targeted protein ubiquitination” (Chemical Science, 2025).
This is one part of the list.

Amino acid sequences for entries named in this document (tags omitted). A change or cut given only in a name is not applied to a line headed by its entry.
UniProt P21399: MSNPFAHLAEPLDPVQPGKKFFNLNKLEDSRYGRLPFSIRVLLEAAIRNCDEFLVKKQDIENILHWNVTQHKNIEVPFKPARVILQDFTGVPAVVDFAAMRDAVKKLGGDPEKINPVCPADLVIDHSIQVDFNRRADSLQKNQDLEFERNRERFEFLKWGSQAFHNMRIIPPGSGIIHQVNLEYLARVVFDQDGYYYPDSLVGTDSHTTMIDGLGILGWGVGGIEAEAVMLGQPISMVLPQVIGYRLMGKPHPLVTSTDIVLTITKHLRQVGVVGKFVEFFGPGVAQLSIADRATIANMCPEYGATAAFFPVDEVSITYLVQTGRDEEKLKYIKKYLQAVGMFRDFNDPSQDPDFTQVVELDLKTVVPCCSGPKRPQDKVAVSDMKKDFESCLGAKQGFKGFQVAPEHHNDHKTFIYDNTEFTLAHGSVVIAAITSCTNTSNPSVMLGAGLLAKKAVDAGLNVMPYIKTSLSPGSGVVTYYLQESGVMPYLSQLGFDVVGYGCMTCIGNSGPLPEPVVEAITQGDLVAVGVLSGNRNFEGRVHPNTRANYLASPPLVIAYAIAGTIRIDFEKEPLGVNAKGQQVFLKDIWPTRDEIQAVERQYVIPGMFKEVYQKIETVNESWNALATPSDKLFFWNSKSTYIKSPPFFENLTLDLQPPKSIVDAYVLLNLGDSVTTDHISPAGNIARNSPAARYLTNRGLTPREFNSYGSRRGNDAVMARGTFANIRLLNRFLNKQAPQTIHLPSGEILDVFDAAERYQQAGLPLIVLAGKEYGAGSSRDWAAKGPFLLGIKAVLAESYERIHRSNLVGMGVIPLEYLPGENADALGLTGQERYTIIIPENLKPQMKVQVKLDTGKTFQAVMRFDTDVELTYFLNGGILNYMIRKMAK
UniProt Q2M2I8: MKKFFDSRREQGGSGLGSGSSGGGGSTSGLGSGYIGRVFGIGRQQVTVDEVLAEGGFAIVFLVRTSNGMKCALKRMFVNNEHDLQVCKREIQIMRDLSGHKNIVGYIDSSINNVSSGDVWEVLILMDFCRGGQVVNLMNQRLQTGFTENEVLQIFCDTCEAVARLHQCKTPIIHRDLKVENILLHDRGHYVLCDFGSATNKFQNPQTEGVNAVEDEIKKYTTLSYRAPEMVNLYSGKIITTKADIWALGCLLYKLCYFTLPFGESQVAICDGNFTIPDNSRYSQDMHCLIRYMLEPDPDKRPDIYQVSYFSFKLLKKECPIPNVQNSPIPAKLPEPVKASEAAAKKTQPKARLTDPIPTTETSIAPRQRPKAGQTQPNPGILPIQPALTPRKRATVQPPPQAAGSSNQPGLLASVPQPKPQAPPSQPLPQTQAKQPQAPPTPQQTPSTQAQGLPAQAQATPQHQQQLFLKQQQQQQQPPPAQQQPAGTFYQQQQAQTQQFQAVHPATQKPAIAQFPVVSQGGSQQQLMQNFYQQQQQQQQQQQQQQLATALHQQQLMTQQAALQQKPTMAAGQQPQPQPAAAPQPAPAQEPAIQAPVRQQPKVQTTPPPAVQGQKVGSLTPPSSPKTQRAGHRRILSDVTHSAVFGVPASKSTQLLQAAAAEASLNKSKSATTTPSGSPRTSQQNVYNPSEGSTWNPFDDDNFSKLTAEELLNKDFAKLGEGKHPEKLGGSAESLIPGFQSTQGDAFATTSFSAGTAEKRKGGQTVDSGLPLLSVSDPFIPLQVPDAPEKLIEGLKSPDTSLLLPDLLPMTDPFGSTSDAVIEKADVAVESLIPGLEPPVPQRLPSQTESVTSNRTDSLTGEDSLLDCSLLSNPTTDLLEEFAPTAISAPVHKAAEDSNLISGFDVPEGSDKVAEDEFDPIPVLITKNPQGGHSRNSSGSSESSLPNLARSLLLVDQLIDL
UniProt P49588, whole entry, looked up: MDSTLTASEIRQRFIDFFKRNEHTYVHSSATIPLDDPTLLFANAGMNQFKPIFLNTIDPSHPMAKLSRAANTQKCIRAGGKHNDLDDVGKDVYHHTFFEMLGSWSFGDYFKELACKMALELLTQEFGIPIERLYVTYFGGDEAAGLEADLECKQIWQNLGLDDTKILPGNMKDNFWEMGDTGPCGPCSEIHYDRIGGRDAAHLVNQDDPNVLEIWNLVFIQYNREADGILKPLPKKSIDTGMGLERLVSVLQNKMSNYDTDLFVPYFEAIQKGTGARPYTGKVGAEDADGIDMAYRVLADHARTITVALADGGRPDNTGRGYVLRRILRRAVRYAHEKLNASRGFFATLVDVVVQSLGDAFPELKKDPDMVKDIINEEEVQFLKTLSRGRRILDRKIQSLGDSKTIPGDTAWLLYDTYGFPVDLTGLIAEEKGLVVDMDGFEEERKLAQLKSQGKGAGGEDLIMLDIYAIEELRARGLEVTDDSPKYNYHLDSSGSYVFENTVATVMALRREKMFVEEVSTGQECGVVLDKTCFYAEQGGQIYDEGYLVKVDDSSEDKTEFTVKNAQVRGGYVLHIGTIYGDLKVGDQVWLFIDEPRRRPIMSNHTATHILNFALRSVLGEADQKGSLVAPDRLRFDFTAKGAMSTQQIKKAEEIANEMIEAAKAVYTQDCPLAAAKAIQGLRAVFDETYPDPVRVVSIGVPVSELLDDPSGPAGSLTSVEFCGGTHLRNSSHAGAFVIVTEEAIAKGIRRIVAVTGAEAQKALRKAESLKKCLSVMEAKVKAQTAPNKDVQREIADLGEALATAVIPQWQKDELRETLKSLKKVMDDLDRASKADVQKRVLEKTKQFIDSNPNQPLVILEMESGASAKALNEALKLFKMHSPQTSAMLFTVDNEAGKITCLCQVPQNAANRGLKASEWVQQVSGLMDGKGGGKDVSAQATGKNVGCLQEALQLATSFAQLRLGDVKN
UniProt Q9NUJ1: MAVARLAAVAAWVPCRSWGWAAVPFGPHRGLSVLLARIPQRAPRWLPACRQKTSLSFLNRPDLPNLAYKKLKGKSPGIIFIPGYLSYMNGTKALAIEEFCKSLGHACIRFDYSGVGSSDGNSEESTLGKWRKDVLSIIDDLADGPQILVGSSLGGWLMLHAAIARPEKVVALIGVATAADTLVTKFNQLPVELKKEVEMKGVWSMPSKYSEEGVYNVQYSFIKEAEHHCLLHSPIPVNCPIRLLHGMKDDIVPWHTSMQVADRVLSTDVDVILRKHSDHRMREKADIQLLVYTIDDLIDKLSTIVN
UniProt P49748: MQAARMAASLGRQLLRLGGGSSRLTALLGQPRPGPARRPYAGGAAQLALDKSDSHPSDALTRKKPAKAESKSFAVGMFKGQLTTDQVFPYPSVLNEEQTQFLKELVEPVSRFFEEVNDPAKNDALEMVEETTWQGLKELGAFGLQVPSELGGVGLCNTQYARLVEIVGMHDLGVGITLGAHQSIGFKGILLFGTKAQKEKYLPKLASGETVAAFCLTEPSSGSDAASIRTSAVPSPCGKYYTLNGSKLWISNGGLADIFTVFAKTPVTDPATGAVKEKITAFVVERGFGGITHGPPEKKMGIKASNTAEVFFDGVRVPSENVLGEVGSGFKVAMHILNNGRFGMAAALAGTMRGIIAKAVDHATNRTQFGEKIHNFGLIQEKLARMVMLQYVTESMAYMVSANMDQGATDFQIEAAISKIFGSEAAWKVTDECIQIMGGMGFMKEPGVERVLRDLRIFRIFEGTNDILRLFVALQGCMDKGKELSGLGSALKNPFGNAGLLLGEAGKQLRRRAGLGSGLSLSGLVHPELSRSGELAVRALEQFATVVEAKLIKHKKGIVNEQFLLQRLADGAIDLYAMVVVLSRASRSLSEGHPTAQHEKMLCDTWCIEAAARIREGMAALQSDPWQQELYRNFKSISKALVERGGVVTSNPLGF
UniProt P24752: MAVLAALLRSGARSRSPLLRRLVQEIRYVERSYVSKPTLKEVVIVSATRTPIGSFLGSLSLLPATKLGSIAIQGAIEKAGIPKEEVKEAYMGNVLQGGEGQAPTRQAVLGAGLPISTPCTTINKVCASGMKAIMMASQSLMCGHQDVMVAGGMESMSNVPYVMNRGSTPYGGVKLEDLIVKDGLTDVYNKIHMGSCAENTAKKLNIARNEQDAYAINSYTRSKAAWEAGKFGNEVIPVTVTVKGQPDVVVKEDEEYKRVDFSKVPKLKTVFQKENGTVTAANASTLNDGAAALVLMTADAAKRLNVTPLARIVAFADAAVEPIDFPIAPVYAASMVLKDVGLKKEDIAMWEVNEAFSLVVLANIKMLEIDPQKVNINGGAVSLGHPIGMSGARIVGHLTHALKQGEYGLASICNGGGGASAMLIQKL
UniProt Q12979: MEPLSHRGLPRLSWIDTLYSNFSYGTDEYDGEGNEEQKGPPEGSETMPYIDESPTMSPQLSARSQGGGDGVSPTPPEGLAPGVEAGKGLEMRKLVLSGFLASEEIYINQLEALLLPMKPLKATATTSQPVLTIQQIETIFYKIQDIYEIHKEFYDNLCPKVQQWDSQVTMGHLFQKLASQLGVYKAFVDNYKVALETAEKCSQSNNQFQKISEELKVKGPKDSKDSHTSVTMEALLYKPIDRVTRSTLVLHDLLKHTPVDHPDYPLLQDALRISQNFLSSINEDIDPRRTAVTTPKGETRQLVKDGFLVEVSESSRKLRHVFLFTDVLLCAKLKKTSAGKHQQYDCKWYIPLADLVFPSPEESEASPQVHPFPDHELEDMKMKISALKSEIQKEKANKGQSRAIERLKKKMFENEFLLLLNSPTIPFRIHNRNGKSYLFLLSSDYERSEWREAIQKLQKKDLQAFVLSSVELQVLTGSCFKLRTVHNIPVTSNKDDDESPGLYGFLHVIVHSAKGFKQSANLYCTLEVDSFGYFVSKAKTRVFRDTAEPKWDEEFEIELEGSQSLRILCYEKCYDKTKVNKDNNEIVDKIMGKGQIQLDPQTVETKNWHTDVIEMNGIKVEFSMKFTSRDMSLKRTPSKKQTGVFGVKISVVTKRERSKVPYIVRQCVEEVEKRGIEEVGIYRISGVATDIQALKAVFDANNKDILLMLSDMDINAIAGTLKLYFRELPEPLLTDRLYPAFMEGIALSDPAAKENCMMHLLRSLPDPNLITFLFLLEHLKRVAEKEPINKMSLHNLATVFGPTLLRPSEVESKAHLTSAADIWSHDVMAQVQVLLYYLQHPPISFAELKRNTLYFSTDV
UniProt Q9Y312: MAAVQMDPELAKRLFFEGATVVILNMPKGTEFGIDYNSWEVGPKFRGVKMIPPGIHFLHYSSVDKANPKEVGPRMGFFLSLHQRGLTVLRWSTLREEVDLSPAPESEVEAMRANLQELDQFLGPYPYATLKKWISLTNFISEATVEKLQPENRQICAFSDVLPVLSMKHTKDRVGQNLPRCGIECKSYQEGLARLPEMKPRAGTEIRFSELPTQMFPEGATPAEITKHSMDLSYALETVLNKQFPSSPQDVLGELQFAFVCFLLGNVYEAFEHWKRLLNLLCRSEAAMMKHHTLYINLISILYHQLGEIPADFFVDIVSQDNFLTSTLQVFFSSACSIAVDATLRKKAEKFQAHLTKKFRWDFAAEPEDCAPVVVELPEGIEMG
UniProt P53396: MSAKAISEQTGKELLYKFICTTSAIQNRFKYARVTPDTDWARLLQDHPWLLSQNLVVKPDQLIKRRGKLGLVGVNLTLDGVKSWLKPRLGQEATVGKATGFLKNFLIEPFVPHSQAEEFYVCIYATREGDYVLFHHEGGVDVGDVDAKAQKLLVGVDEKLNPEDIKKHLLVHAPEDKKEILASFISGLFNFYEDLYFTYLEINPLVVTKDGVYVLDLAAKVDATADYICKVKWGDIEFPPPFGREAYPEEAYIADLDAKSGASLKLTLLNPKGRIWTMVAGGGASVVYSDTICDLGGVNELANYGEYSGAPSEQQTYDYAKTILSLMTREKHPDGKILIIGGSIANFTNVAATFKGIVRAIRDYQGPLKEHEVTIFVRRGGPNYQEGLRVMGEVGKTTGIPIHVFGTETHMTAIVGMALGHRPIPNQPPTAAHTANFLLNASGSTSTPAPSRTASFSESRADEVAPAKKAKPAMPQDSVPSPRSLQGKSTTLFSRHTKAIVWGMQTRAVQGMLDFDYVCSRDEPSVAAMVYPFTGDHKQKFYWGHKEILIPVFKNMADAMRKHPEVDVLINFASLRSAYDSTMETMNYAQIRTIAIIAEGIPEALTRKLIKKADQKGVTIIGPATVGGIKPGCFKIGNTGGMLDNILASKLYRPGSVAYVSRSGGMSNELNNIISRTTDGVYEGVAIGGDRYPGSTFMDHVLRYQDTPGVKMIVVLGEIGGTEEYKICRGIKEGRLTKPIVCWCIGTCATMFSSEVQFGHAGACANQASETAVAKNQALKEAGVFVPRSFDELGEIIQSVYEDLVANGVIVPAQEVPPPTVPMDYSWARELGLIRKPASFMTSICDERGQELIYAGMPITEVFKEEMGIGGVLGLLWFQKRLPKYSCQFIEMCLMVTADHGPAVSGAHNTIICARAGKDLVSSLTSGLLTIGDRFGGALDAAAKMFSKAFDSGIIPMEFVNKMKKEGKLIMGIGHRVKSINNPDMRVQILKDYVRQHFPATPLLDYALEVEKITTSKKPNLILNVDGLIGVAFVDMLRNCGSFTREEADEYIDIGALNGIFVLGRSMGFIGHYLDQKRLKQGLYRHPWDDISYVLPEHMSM

Compound: CC1Cc2ccccc2N1C(=O)C1CCCN(C1)C(=O)CCl (mixture of isomers) [TRIM25 ligand 11 (diastereomer mixture)]
Test: probe-labelled cysteine peptide fold change vs DMSO (competition) (log2 fold change); higher = less target engagement (more negative = stronger competition)
Conditions: THP-1, incubation time: 4 h
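Note: competitive chemoproteomic profiling in live THP-1 cells with an iodoacetamide desthiobiotin (IA-DTB) probe, comparing probe-labelled peptide intensities in compound-treated cells against DMSO-treated controls.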

Row | Target | probe-labelled cysteine peptide fold change (10 µM) | probe-labelled cysteine peptide fold change (50 µM)
1 | ACACA_Q13085_1769_VSALNSVHCEHVEDEGESR (UniProt Q13085) | 0.042 | -0.0311
2 | ABHD3_Q8WU67_86_FLQDHCPVVTETYYPTVWCWEGR (UniProt Q8WU67) | -0.0185 | 0.0955
3 | ABCF2_Q9UG63_186_LAHEDAECEK (UniProt Q9UG63) | 0.0364 | -0.158
4 | AARS2_Q5JTZ9_750_VVSVGVPVAHALDPASQAALQTSVELCCGTHLLR (UniProt Q5JTZ9) | 0.254 | 0.147
5 | ACO1_P21399_118_INPVCPADLVIDHSIQVDFNRR (UniProt P21399) | -0.044 | 0.0205
6 | AAK1_Q2M2I8_193_GHYVLCDFGSATNK (UniProt Q2M2I8) | 0.0518 | 0.121
7 | ACOT11_Q8WXI4_529_RGETLCSGFCLWR (UniProt Q8WXI4) | 0.138 | 0.256
8 | AARS_P49588_533_TCFYAEQGGQIYDEGYLVK (UniProt P49588) | -0.0583 | -0.124
9 | ABRACL_Q9P1F3_39_CANLFEALVGTLK (UniProt Q9P1F3) | -0.105 | -0.0941
10 | AARS2_Q5JTZ9_596+609_AQVCGGFILHEAVAPECLR (UniProt Q5JTZ9) | 0.163 | 0.342
11 | AAAS_Q9NRG9_444_NSPVFELLPCGIIQGEPGAQPQLITFHPSFNK (UniProt Q9NRG9) | 0.193 | 0.0961
12 | ACAD9_Q9H845_179_LASGEHIAAFCLTEPASGSDAASIR (UniProt Q9H845) | 0.158 | 0.157
13 | ABHD10_Q9NUJ1_100_ALAIEEFCK (UniProt Q9NUJ1) | 0.101 | 0.0939
14 | ACACA_Q13085_378_DCSVQR (UniProt Q13085) | 0.0963 | 0.5
15 | ACACA_Q13085_1297_TDCDIEDDRLAAMFR (UniProt Q13085) | 0.0398 | -0.09
16 | ABRAXAS2_Q15018_237_VVESCQAEVNK (UniProt Q15018) | 0.0911 | 0.0743
17 | ABCE1_P61221_38_LCIEVTPQSK (UniProt P61221) | -0.0845 | 0.0618
18 | AAK1_Q2M2I8_87_MFVNNEHDLQVCK (UniProt Q2M2I8) | -0.0313 | 0.00107
19 | AARS_P49588_525_MFVEEVSTGQECGVVLDK (UniProt P49588) | -0.0692 | -0.174

Row | Target | probe-labelled cysteine peptide fold change (10 µM) | probe-labelled cysteine peptide fold change (50 µM)
20 | ACADVL_P49748_237_TSAVPSPCGK (UniProt P49748) | -0.126 | -0.057
21 | ACAT1_P24752_413_QGEYGLASICNGGGGASAMLIQK (UniProt P24752) | -0.0547 | -0.278
22 | ABR_Q12979_330_HVFLFTDVLLCAK (UniProt Q12979) | -0.0466 | -0.00591
23 | ACBD6_Q9BR61_200_ALLHWACDR (UniProt Q9BR61) | -0.00153 | -0.0101
24 | AAMDC_Q9H7C9_122_VGGVFHSTC (UniProt Q9H7C9) | -0.0421 | -0.0926
25 | ABHD10_Q9NUJ1_229_EAEHHCLLHSPIPVNCPIR (UniProt Q9NUJ1) | -0.123 | 0.136
26 | ACO2_Q99798_451_DLGGIVLANACGPCIGQWDR (UniProt Q99798) | -0.0432 | 0.121
27 | ACOT13_Q9NPJ3_74_VEEEHTNAIGTLHGGLTATLVDNISTMALLCTER (UniProt Q9NPJ3) | -0.202 | 0.169
28 | ACAP2_Q15057_691_GPLHHATVLGHTGQVCLFLK (UniProt Q15057) | -0.0338 | -0.202
29 | AAR2_Q9Y312_156_QICAFSDVLPVLSMK (UniProt Q9Y312) | -0.212 | -0.0154
30 | ACADVL_P49748_156_ELGAFGLQVPSELGGVGLCNTQYAR (UniProt P49748) | 0.0464 | -0.0491
31 | ABCA2_Q9BZC7_1542_LPSGVGATCVLK (UniProt Q9BZC7) | -0.0564 | -0.0927
32 | ABL1_P00519_100_VLGYNHNGEWCEAQTK (UniProt P00519) | 0.0166 | 0.0865
33 | ACLY_P53396_845_KPASFMTSICDER (UniProt P53396) | 0.294 | 0.0276
34 | ABHD10_Q9NUJ1_107_SLGHACIR (UniProt Q9NUJ1) | 0.193 | 0.0714
35 | ACAT1_P24752_413_QGEYGLASICNGGGGASAMLIQKL (UniProt P24752) | -0.402 | -0.249
36 | ACIN1_Q9UKV3_1223_AAPCIYWLPLTDSQIVQK (UniProt Q9UKV3) | -0.0905 | -0.186
37 | ABHD15_Q6UXT9_323_SLREFEEALFCHTK (UniProt Q6UXT9) | 0.0883 | 0.1
38 | ACAA2_P42765_287_IVGYFVSGCDPSIMGIGPVPAISGALK (UniProt P42765) | 0.119 | -0.131

Record cards, as listed above. Values in the order: probe-labelled cysteine peptide fold change (10 µM) | probe-labelled cysteine peptide fold change (50 µM)
ACADVL_P49748_156_ELGAFGLQVPSELGGVGLCNTQYAR (UniProt P49748) is entered as 0.0464 | -0.0491
ABR_Q12979_330_HVFLFTDVLLCAK (UniProt Q12979) is entered as -0.0466 | -0.00591
